Reference: article PMC10579421

Target: Flag-NCOR2-013 (human)
Test: co-IP

B1: JunB (protein, UniProt P17275 1-347)
chain: MCTKMEQPFYHDDSYTATGYGRAPGGLSLHDYKLLKPSLAVNLADPYRSLKAPGARGPGPEGGGGGSYFSGQGSDTGASLKLASSELERLIVPNSNGVITTTPTPPGQYFYPRGGGSGGGAGGAGGGVTEEQEGFADGFVKALDDLHKMNHVTPPNVSLGATGGPPAGPGGVYAGPEPPPVYTNLSSYSPASASSGGAGAAVGTGSSYPTTTISYLPHAPPFAGGHPAQLGLGRGASTFKEEPQTVPEARSRDATPPVSPINMEDQERIKVERKRLRNRLAATKCRKRKLERIARLEDKVKTLKAENAGLSSTAGLLREQVAQLKQKVMTHVSNGCQLLLGVKGHAF
  binding: binds

No constants are given. Whether binding was seen depends on the method and setting. In cells and extracts the contact can be indirect. Binding can be weak; no strength is given.
